# Source: PubChem BioAssay AID445 (National Center for Advancing Translational Sciences (NCATS), 2006)
# “And” between values parts separate entries of the source, which are not always exact repeats. Equal values may be shown once. This is one part of the list. Shown are side measurements of this screen, not its main read-out; they come without a call. The list favours compounds with an active or inconclusive main result. The note in brackets gives the kind of curve behind each potency; many fits are weak.
# Assay: IkB Signaling
# Settings: ABC-DLBCL IkBa-CBG/CBR dual luciferase ratio (green luciferase fused to IkBa over red control in OCI-Ly3 lymphoma cells), 4 h
# Method in brief: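 Luminescence ratio of IκBα-fused green versus native red beetle luciferase in OCI-Ly3 cells, 4 h post-doxycycline with compound; red signal alone, scaled from basal (0%) to zero light (-100%), flagged nonspecific or cytotoxic effects.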
# [1] = measured here: control luc red channel unless noted
# [2] = measured here: IkB-luc green channel
# [3] = measured here: control luc red channel
structure (smiles),measurement,setting,value
COc1cc2c(=O)n(CC3CCCO3)c(=O)n(CC(=O)Nc3cccc(Cl)c3)c2cc1OC (centres undefined),AC50,[1],"3.98 µM [falling, full curve, poor fit]"
O=C(c1ccc(COc2ccc(Cl)cc2)o1)N1CCN(Cc2ccc3c(c2)OCO3)CC1,AC50,[1],"7.94 µM [falling, partial curve]"
Cc1ccc(NC(=O)Nc2nnc(N(C)Cc3ccccc3)s2)c(C)c1,AC50,[1],"12.6 µM [falling, partial curve]"
CC(=O)N1CCc2c(sc3nc(SCC(C)C)n(-c4ccc(F)c(Cl)c4)c(=O)c23)C1,AC50,[1],"25.1 µM [falling, single point]"
COC(=O)c1ccc(C2C(C(=O)Nc3ccccc3)=C(C)Nc3nc4ccccc4n32)cc1 (centres undefined),AC50,[1],"12.6 µM [falling, partial curve]"
CN(C)S(=O)(=O)N(CC(=O)Nc1ccc(C(F)(F)F)cc1)c1ccccc1,AC50,[1],"7.94 µM [falling, partial curve]"
Cc1nc(N2CCOCC2)c2c(C(=O)NCc3ccc(Cl)cc3)c(C)oc2n1,AC50,[1],"20 µM [falling, single point]"
CCc1ccc(NC(=O)c2nc3nc(C)cc(C(F)F)n3n2)cc1,AC50,[1],"1.58 µM [rising, full curve]"
Cc1ccc(S(=O)(=O)N2CC=C(c3c(C)n(CC(=O)N4CCCC4)c4ccccc34)CC2)cc1C,AC50,[1],"20 µM [falling, single point]"
COc1cc(OC)cc(C(=O)NCCc2csc3nc(-c4ccccc4F)nn23)c1,AC50,[1],"39.8 µM [falling, single point]"
Cc1sc(-n2cccc2)c(C(C)NC(=O)Nc2cccc(C(F)(F)F)c2)c1C (centres undefined),AC50,[1],"1.58 µM [falling, single point]"
O=C(Nc1ccc(F)cc1)c1cc(S(=O)(=O)N2CCCCC2)cs1,AC50,[1],"10 µM [falling, partial curve]"
COc1ccccc1CNS(=O)(=O)c1cc(Br)cc2c1N(C(=O)C1CC1)CC2,AC50,[1],"12.6 µM [falling, partial curve]"
Cc1cc(C)c2sc(NC(=O)c3ccc(S(=O)(=O)N4CCCC4)cc3)nc2c1,AC50,[1],"5.01 µM [falling, partial curve]"
CC(C)(C)c1ccc(-c2nc(C#N)c(NCc3ccncc3)o2)cc1,AC50,[1],"39.8 µM [falling, single point]"
COc1ccccc1C(=O)Nc1nc2nc(C)cc(=O)n2[nH]1,AC50,[1],"3.98 µM [falling, partial curve]"
O=C1C(SCCO)=C(SCCO)C(=O)c2ccccc21,AC50,[2],"5.01 µM [rising, partial curve]"
same,AC50,[3],"3.98 µM [falling, partial curve] and 2 µM [falling, full curve]"
COc1ccc(OC)c(S(=O)(=O)Nc2ccc3c(c2)n(C)c(=O)n3C)c1,AC50,[2],"10 µM [rising, partial curve]"
same,AC50,[3],"20 µM [rising, partial curve]"
CCOC(=O)c1c(C)oc2ccc(N(C(=O)c3ccncc3)S(=O)(=O)c3ccc(CC)cc3)cc12,AC50,[2],"7.94 µM [rising, single point]"
same,AC50,[3],"15.8 µM [falling, partial curve]"
C=CCc1ccccc1OCC(O)CN1CCN(Cc2ccc3c(c2)OCO3)CC1 (centres undefined),AC50,[1],"15.8 µM [falling, partial curve]"
CCOC(=O)c1c(C)[nH]c(CCC(=O)Nc2cc(Cl)ccc2OC)c1C,AC50,[1],"25.1 µM [falling, partial curve]"
COC(=O)c1cc(NC(=O)c2cc3c(-c4ccccc4F)nn(C)c3s2)cc(C(=O)OC)c1,AC50,[1],"15.8 µM [falling, partial curve]"
O=C(c1cccs1)N1CCC(c2nc3ccccc3s2)CC1,AC50,[1],"31.6 µM [falling, single point]"
COc1ccc(N2CCN(S(=O)(=O)c3ccc(CC(C)C)cc3)CC2)cc1,AC50,[1],"15.8 µM [falling, partial curve]"
CCOC(=O)c1c(NC(=O)CSc2nnc(-c3ccccc3)n2CC)sc(C(C)=O)c1C,AC50,[1],"15.8 µM [falling, partial curve]"
O=C(CSc1ncnc2ccccc12)N1CCN(c2ccccc2)CC1,AC50,[1],"15.8 µM [falling, partial curve]"
CCOC(=O)c1cccc(NC(=O)C(C)n2nc(C)c3c(C)n(-c4ccccc4)nc3c2=O)c1 (centres undefined),AC50,[1],"20 µM [falling, single point]"
CCOC(=O)c1cc(C#N)c(NCc2ccccc2)nc1C,AC50,[1],"3.98 µM [rising, partial curve]"
Cc1oc(-c2ccccc2F)nc1CS(=O)(=O)CC(=O)N1CCN(c2ccccc2)CC1,AC50,[1],"20 µM [falling, partial curve]"
O=C(CSc1nc(NS(=O)(=O)c2ccccc2)cc(=O)[nH]1)Nc1ccc(F)cc1,AC50,[1],"12.6 µM [falling, partial curve]"
COc1cc(/C=C/C(=O)CC(=O)/C=C/c2ccc(O)c(OC)c2)ccc1O,AC50,[2],"3.98 µM [rising, partial curve]"
same,AC50,[3],"12.6 µM [falling, partial curve]"
COc1ccc(-c2[nH]c(-c3ccc(O)cc3)nc2-c2ccccc2)cc1,AC50,[1],"3.16 µM [falling, partial curve]"
C=CCOC(=O)c1[nH]c2c(c1C)C(=O)CC(c1ccco1)C2 (centres undefined),AC50,[1],"631 nM [rising, full curve] [measured here: IkB-luc green channel]"
CC(CNC(=O)c1ccc2c(c1)nc1n2CCCCC1)c1ccccc1 (centres undefined),AC50,[1],"15.8 µM [falling, single point]"
COC(=O)c1nn(-c2ccc(-c3ccccc3)cc2)cc1O,AC50,[1],"15.8 µM [falling, single point]"
COc1ccccc1-c1nn2c(=O)cc(CN3CCN(C(=O)Nc4ccc(C)cc4Cl)CC3)nc2s1,AC50,[1],"0.0501 µM [falling, full curve]"
Cc1ccc(C2C(=O)N(C3CCC(C)CC3)CC(=O)N2C2CCCC2)cc1 (centres undefined),AC50,[1],"20 µM [falling, single point]"
Cc1cc(NS(=O)(=O)c2ccc(NC(=O)COc3c(C)ccc(C)c3C)cc2)nc(C)n1,AC50,[1],"15.8 µM [falling, partial curve]"
CCS(=O)(=O)N1CCc2cc(C(=O)Nc3ccc(Br)cc3F)ccc21,AC50,[1],"5.01 µM [falling, partial curve]"
CCc1cccc(C)c1NC(=O)c1ccc2c(c1)CCN2S(=O)(=O)c1ccc(Cl)cc1,AC50,[1],"10 µM [falling, partial curve]"
CC1CCN(C(=O)CSc2nnc(-c3cc4ccccc4cc3O)n2Cc2ccco2)CC1,AC50,[1],"31.6 µM [falling, partial curve]"
COc1ccc(N(Cc2cccs2)C(=O)c2ccco2)cc1,AC50,[1],"31.6 µM [falling, partial curve]"
Cc1cc(C)cc(NC(=O)CCc2c(C)nc3nc(CNC(=O)c4cccc(F)c4)nn3c2C)c1,AC50,[1],"20 µM [falling, single point]"
COc1cccc(CN2C(=O)c3ccccc3Sc3ccc(C(=O)N(C)Cc4ccccc4)cc32)c1,AC50,[1],"0.398 µM [falling, partial curve]"
CCCCNC(=O)CSc1nc2ccccc2nc1Cc1ccc(C)cc1,AC50,[1],"7.94 µM [rising, single point]"
C=CC1=C(C)C2=NC1=CC1=NC(=CC3=NC(=CC4=NC(=C2)C(C)=C4CCC(=O)O)C(CCC(=O)O)=C3C)C(C=C)=C1C.[Zn],AC50,[1],"39.8 µM [rising, partial curve]"
COc1cccc2cc(-c3nc(Nc4cccc(C)c4)sc3C)c(=O)oc12,AC50,[1],"25.1 µM [falling, partial curve, poor fit]"
O=C(c1cccs1)c1cn(CCOc2ccccc2F)c2ccccc12,AC50,[1],"10 µM [falling, partial curve]"
CC(C)c1ccc(S(=O)(=O)c2nnn3c2nc(N2CCN(C)CC2)c2sccc23)cc1,AC50,[1],"39.8 µM [falling, single point]"
CC(=O)c1cccc(NC(=O)c2nc3ccccc3n(C)c2=O)c1,AC50,[1],"5.01 µM [falling, partial curve]"
CCOC(=O)c1ccccc1NC(=O)c1c2c(nc3ccccc13)C(=O)N(C1CCCCC1)C2,AC50,[1],"20 µM [falling, single point]"
CCOC(=O)C1CCCN(CC(=O)N2CCCc3c2c(=O)oc2ccc(OCc4ccccc4)cc32)C1 (centres undefined),AC50,[1],"31.6 µM [falling, partial curve]"
COc1cc(OC)cc(C(=O)Nc2cc(-c3nc4cc(Cl)ccc4o3)ccc2Cl)c1,AC50,[1],"2.51 µM [falling, full curve]"
CCc1ccc(NC(=O)c2sc3ncnc(N(C)C4CCCCC4)c3c2C)cc1,AC50,[1],"39.8 µM [falling, single point]"
CCn1c(-c2cc(Br)cc(OC)c2O)nc2cc(S(=O)(=O)N(C)C)ccc21,AC50,[1],"39.8 µM [falling, single point]"
COc1ccc(CNC(=O)Nc2ccc3c(c2)N(C)C(=O)c2ccccc2S3)cc1,AC50,[1],"20 µM [falling, partial curve]"
Cc1cc(-c2ccc(C)c(S(=O)(=O)NC(c3cccs3)C(C)C)c2)on1 (centres undefined),AC50,[1],"25.1 µM [falling, single point]"
O=C(Nc1ccccc1O)c1cc(S(=O)(=O)N2CCOCC2)c(Cl)cc1Cl,AC50,[1],"7.94 µM [falling, partial curve]"
CCOC(=O)Nc1nnc(CCc2ccccc2)s1,AC50,[1],"398 nM [rising, partial curve] [measured here: IkB-luc green channel]"
CCc1nnc(SCc2c(F)cccc2Cl)c2cc3sccc3n12,AC50,[1],"15.8 µM [falling, partial curve]"

# A section from further up, for reference:
structure (smiles),measurement,setting,value
COC(=O)c1ccc(C2C(C(=O)Nc3ccccc3)=C(C)Nc3nc4ccccc4n32)cc1 (centres undefined),AC50,[1],"12.6 µM [falling, partial curve]"
CN(C)S(=O)(=O)N(CC(=O)Nc1ccc(C(F)(F)F)cc1)c1ccccc1,AC50,[1],"7.94 µM [falling, partial curve]"
Cc1nc(N2CCOCC2)c2c(C(=O)NCc3ccc(Cl)cc3)c(C)oc2n1,AC50,[1],"20 µM [falling, single point]"
